This note sets out measurements from publication PMC7001992.

Experiment [1] addresses Myc-tagged eukaryotic initiation factor 4G (Myc-eIF4G) (Drosophila). Kind of experiment: co-IP; S2R+ cells, 2 mg protein lysate incubated 2 h with Myc-Trap or GFP-Trap beads; in the absence or presence of 50 U RNase T1; immunoblot. In general terms: Immunoblotting shows a protein as a band on a membrane.
For experiment [2], the target named is GFP-tagged IGF-II mRNA-binding protein (GFP-Imp) (Drosophila). The description is as above.
Experiment [3] deals with eukaryotic initiation factor 4G (eIF4G), endogenous in ovaries (Drosophila (endogenous in ovaries)). Kind of experiment: co-IP; ovary extracts of flies expressing Venus-Mkrn1, IP buffer (1 X PBS, 0.4% Triton X-100, 1 mM MgCl2, 5% glycerol); IP with anti-pAbp Fab antibody or α-eIF4G rabbit antibody overnight at 4°C, protein A agarose; RNase A when present; western blot.

These are yes or no findings as the source states them, for the method shown. In cells and extracts the contact can be indirect. Binding can be weak; no strength is given. Sequences can lack the tags named with a protein.

B1: tagged Mkrn1^RING (protein, UniProt Q9VP20 1-386)
chain: MSAVTSSDTAISGMALGRSQTICRYYVRGICRFGELCRFSHDLSRGRPECEEQVATDVLPKPSTSSSSTIGSRSASISSQQRNWANAPVFVPSQKRYTAHEQSEFETTVDPEAVMEAQAGASYDTLAPGVSWAEVVGGPSSLNKEDYGEENSSCAWGEFSAYPIHMELCEMCDQYCLHPTDQVQRRSHNRECLQQHEQAMELSFAIARSKDKTCGICFDTIMEKAGREKRFGILPNCNEIFCLECIRTWRQAKQFENKITRACPECRVCSDFVCPSAFWMETKEEKDKLLNDYRAALGAKDCKYFKKGEGKCPFGNKCFYKHALPNGDIVDVGLPKRTRKLQSQNEIIDLLDIYLWDYVDRRDYHWLEMISSDITSSESSDYSDED
For the molecule B1, the binding result in experiment [1] and in experiment [2] was “binds” each time.

B2: Venus-tagged Mkrn1 (Venus-Mkrn1) (protein, UniProt Q9VP20 1-386)
chain: MSAVTSSDTAISGMALGRSQTICRYYVRGICRFGELCRFSHDLSRGRPECEEQVATDVLPKPSTSSSSTIGSRSASISSQQRNWANAPVFVPSQKRYTAHEQSEFETTVDPEAVMEAQAGASYDTLAPGVSWAEVVGGPSSLNKEDYGEENSSCAWGEFSAYPIHMELCEMCDQYCLHPTDQVQRRSHNRECLQQHEQAMELSFAIARSKDKTCGICFDTIMEKAGREKRFGILPNCNHIFCLECIRTWRQAKQFENKITRACPECRVCSDFVCPSAFWMETKEEKDKLLNDYRAALGAKDCKYFKKGEGKCPFGNKCFYKHALPNGDIVDVGLPKRTRKLQSQNEIIDLLDIYLWDYVDRRDYHWLEMISSDITSSESSDYSDED
In the case of B2, the binding result in experiment [3] is “binds”.
